The results in this text go back to the supplement of paper PMC4604168 (melanoma cell lines).

Among the test systems are WM115; WM1716; WM1745; WM3526; WM3619; WM451Lu.
Assay in all cases: cleaved PARP positive nuclei fraction relative to DMSO control; melanoma cells; higher = more apoptosis
Conditions in all cases: library dose: low library concentration; 72 h

Some of the results follow. Single values are uncertain, as repeats are few or missing.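 The apoptosis fraction was the count of cleaved-PARP antibody-stained nuclei relative to all DNA-stained nuclei, imaged in 1,536-well plates. Screening doses were set so most cells survived, and baseline and induced cleaved-PARP levels vary greatly across cell lines.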

As to `CC1(C)NC(=O)N(c2ccc([N+](=O)[O-])c(C(F)(F)F)c2)C1=O` [nilutamide] + O=C(O)C(=O)Nc1sc2c(c1C(=O)O)CCNC2 [TCS401] (first compound 1 µM, partner dose 1.66667 µM), the “cleaved PARP positive nuclei fraction” value with WM115 was 88%; with WM1716, 85.9%; with WM1745, 123%; with WM3526, 150%; in the assay on WM3619, 83.1%; in the assay on WM451Lu, 93.1%.

Regarding `CC(=O)c1c(C)c2cnc(Nc3ccc(N4CCNCC4)cn3)nc2n(C2CCCC2)c1=O` [palbociclib] + CCc1ccc(CCOc2ccc(CC3SC(=O)NC3=O)cc2)nc1 [pioglitazone] (first compound 0.04 µM, partner dose 2 µM), the “cleaved PARP positive nuclei fraction” value worked out at 151% with WM115; 126% in the assay on WM1716; 105% in the assay with WM1745; 106% in the assay on WM3526; 117% in the assay on WM3619; 197% in the assay with WM451Lu.

Take `CC(=O)c1c(C)c2cnc(Nc3ccc(N4CCNCC4)cn3)nc2n(C2CCCC2)c1=O` [palbociclib] + Nc1cccc2c1CN(C1CCC(=O)NC1=O)C2=O [lenalidomide] (first compound 0.04 µM, partner dose 1 µM): the “cleaved PARP positive nuclei fraction” value came out at 159% in the assay on WM115; 48.3% in the assay with WM1716; 143% with WM1745; 63.8% in the assay on WM3526; 169% in the assay on WM3619; 58.3% in the assay with WM451Lu.

In the case of `C=CCNC1=C2C[C@@H](C)C[C@H](OC)[C@H](O)[C@@H](C)/C=C(\C)[C@H](OC(N)=O)[C@@H](OC)/C=C\C=C(/C)C(=O)NC(=CC1=O)C2=O` [Tanespimycin] + COc1ccc(Cl)c(Nc2nc3ccccc3nc2NS(=O)(=O)c2cccc(NC(=O)C(C)(C)N)c2)c1 [XL147] (first compound 0.002 µM, partner dose 0.8 µM), the “cleaved PARP positive nuclei fraction” value with WM115 amounted to 159%; in the assay on WM1716, 114%; in the assay with WM1745 it was 108%; in the assay on WM3526, 48.5%; in the assay on WM3619, 145%; in the assay on WM451Lu it was 64.6%.

As to `CC(=O)c1c(C)c2cnc(Nc3ccc(N4CCNCC4)cn3)nc2n(C2CCCC2)c1=O` [palbociclib] + Clc1ccc(Nc2nnc(Cc3ccncc3)c3ccccc23)cc1 [vatalanib] (first compound 0.04 µM, partner dose 2 µM), the “cleaved PARP positive nuclei fraction” value in the assay on WM115 turned out to be 83.4%; with WM1716, 184%; in the assay on WM1745 it was 134%; in the assay with WM3526 it was 60.9%; with WM3619 it was 316%; with WM451Lu, 98%.

For `Nc1cccc2c1CN(C1CCC(=O)NC1=O)C2=O` (configuration not stated) [lenalidomide] + c1cc(-c2cnn3cc(-c4ccc(OCCN5CCCCC5)cc4)cnc23)ccn1 [Dorsomorphin] (first compound 1 µM, partner dose 0.4 µM), the “cleaved PARP positive nuclei fraction” value in the assay with WM115 amounted to 73.9%; in the assay on WM1716 it was 47.6%; with WM1745, 105%; with WM3526, 120%; in the assay with WM3619, 70.7%; in the assay on WM451Lu, 55.8%.

With `Cc1cc(N2CCOCC2)cc2[nH]c(-c3c(NC[C@@H](O)c4cccc(Cl)c4)cc[nH]c3=O)nc12` + Cc1cc([N+](=O)[O-])ccc1NS(=O)(=O)c1cc(Cl)ccc1Cl [FH535] (first compound 0.2 µM, partner dose 1 µM), the “cleaved PARP positive nuclei fraction” value with WM115 worked out at 49%; in the assay with WM1716 it was 58.4%; with WM1745, 165%; in the assay on WM3526, 63.5%; in the assay on WM3619, 94.2%; in the assay on WM451Lu it was 257%.

Regarding `C=CCNC1=C2C[C@@H](C)C[C@H](OC)[C@H](O)[C@@H](C)/C=C(\C)[C@H](OC(N)=O)[C@@H](OC)/C=C\C=C(/C)C(=O)NC(=CC1=O)C2=O` [Tanespimycin] + Cc1nc(Nc2ncc(C(=O)Nc3c(C)cccc3Cl)s2)cc(N2CCN(CCO)CC2)n1 [dasatanib] (first compound 0.002 µM, partner dose 0.004 µM), the “cleaved PARP positive nuclei fraction” value with WM115 turned out to be 75.6%; in the assay with WM1716, 140%; with WM1745 it was 190%; with WM3526 it was 97.7%; in the assay on WM3619, 139%; in the assay on WM451Lu it was 67.7%.

`CC(=O)c1c(C)c2cnc(Nc3ccc(N4CCNCC4)cn3)nc2n(C2CCCC2)c1=O` [palbociclib] + N#Cc1c(O)c2c(-c3ccc(-c4ccccc4O)cc3)csc2[nH]c1=O [A769662] (first compound 0.04 µM, partner dose 2 µM): the “cleaved PARP positive nuclei fraction” value in the assay with WM115 stood at 86.5%; in the assay with WM1716 it was 89.9%; in the assay with WM1745 it was 120%; in the assay on WM3526 it was 120%; in the assay with WM3619, 133%; in the assay with WM451Lu, 121%.

Consider `CC1(C)NC(=O)N(c2ccc([N+](=O)[O-])c(C(F)(F)F)c2)C1=O` [nilutamide] + CC(C)CCN1c2nc(Nc3cc(F)c(O)c(F)c3)ncc2N(C)C(=O)C1C [BID1870] (first compound 1 µM, partner dose 0.2 µM), for which the “cleaved PARP positive nuclei fraction” value is 115% with WM115; 62% in the assay with WM1716; 105% with WM1745; 31.3% with WM3526; 71% with WM3619; 117% in the assay with WM451Lu.

`O=C(CCCCCCC(=O)Nc1ccccc1)NO` [vorinostat] + CCCCCCCCCCCC1=C(O)C(=O)C=C(O)C1=O [Embelin] (first compound 0.08 µM, partner dose 1.2 µM): the “cleaved PARP positive nuclei fraction” value with WM115 came to 21.4%; in the assay with WM1716 it was 67.7%; with WM1745 it was 109%; in the assay on WM3526 it was 68.1%; in the assay with WM3619, 74.1%; with WM451Lu it was 82.2%.

`C=CCn1c(=O)c2cnc(Nc3ccc(N4CCN(C)CC4)cc3)nc2n1-c1cccc(C(C)(C)O)n1` + CCc1ccc(CCOc2ccc(CC3SC(=O)NC3=O)cc2)nc1 [pioglitazone] (first compound 0.02 µM, partner dose 2 µM): the “cleaved PARP positive nuclei fraction” value with WM115 is 91.5%; in the assay with WM1716, 56.9%; in the assay with WM1745, 172%; in the assay on WM3526, 146%; with WM3619, 122%; in the assay on WM451Lu, 60.7%.
